Assay results as given in patent publication US8492543B2, “Method for producing quinazoline derivative” (Eisai R&D Management Co., Ltd., priority 2007, dated 2013).
At least one structure is not confirmed: it was looked up by name or label, or the drawing left a doubt.

Tests used:
[1] = tested on: phosphodiesterase 4 (PDE4); experiment: PDE4 inhibitory action (statement, no method given); assay type: biochemical
[2] = tested on: oxazolone-induced scratching behavior; experiment: Oxazolone-induced scratching behavior model; assay type: in vivo, NC/Nga female mice; conditions: 0.3% in acetone:ethanol=1:1, 10 microliters; score 1 day after minus before; FIG. 2

`CNc1nc(-c2cccc(NC(=O)c3ccc(C(=O)OC)cc3)c2)c2cc(OC)c(OC)cc2n1` [Example 10, methyl N-[3-(6,7-dimethoxy-2-methylaminoquinazolin-4-yl)phenyl]terephthalamic acid] was tested, and the “PDE4 inhibition compared to the compound described in Patent Document 1” value [1] was “superior PDE4 inhibitors” and the “cutaneous symptoms (abrasion, bleeding/erosion score, difference before/after induction)” value [2] was “suppresses deterioration in cutaneous symptoms”.
